Results reported in article PMC11273936 (Antibiotics, 2024).

Experiment: general procedure: Fmoc solid-phase peptide synthesis in flow; TentaGel-S-NH2 ([…]) with HMPA linker (1, 3-6) or Rink amide linker (7-11); HATU/DIPEA; PyAOP/sym-collidine for Cys
Conditions: for step yield: purification step, based on crude yield; for isolated yield: overall
[1] = whole synthesis, analytical RP-HPLC, scale of the general procedure ca. 0.15 mmol

Row | Substance | step yield [%] | isolated mass (whole synthesis) [mg] | final HPLC purity (whole synthesis, 214 nm, scale of the general procedure ca. 0.15 mmol) [%] | crude HPLC purity [1] | crude yield (whole synthesis, based on initial resin loading, scale of the general procedure ca. 0.15 mmol) [%] | isolated yield (whole synthesis, accounting for resin splitting, scale of the general procedure ca. 0.15 mmol) [%] | crude mass (whole synthesis, scale 0.05 mmol) [mg] | crude HPLC purity (cyclisation step, analytical RP-HPLC) | final HPLC purity [1] [%] | final purity (method not given) [1] [%] | isolated yield (whole synthesis, scale of the general procedure ca. 0.15 mmol) [%]
1 | Capitellacin | 26 | 11.7 | > 97 | ca. 60% | 38 | 10 | 45 | – | – | – | –
2 | Vinyl Sulphide Analogue, 'Lys18-D-Cys5' | 11.6 | 8.0 | – | – | – | – | – | approximately 60% | > 96 | 96 | 2.2
